# Measured values: EP0184322A1, “Benzimidazoles” (SMITH KLINE & FRENCH LABORATORIES LIMITED, priority 1984, dated 1986)
# Protein sequences, listed by entry. Tags and fused reporters are not part of them. Residues count along the entry.
# UniProt P19156, 2-1034 limits assumed: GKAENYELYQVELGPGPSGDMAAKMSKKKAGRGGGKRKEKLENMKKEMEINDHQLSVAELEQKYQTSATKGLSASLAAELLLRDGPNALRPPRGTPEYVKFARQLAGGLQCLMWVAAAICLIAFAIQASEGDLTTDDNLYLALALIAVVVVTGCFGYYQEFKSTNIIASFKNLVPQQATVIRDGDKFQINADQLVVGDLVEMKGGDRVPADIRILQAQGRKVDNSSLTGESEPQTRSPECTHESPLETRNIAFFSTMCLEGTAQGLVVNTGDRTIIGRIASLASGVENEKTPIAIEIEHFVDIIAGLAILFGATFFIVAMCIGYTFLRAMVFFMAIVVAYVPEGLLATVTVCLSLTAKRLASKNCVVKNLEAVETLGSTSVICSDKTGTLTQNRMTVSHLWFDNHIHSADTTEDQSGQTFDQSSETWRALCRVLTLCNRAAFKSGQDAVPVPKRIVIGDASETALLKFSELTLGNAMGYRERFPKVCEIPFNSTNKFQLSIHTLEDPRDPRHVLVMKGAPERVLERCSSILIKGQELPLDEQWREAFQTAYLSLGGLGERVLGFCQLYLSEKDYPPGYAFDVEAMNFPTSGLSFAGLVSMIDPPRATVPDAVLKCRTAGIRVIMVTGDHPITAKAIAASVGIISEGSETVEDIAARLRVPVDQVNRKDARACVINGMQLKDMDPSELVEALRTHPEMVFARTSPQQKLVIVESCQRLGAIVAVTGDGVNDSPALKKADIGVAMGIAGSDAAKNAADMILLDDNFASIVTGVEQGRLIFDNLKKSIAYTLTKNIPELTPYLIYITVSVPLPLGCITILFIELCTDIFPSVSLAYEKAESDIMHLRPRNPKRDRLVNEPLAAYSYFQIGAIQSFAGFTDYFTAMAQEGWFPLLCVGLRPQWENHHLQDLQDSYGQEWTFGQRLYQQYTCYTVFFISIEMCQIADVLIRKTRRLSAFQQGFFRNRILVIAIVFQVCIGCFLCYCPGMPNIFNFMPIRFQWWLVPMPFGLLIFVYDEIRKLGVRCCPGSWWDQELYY
# Some results were stated once for a whole list of compounds, not compound by compound.
# Target: T1, H^+ -K^+ -ATPase (Sus scrofa, UniProt P19156)
# T1 construct: prepared from the lyophilised gastric vesicles of pig fundic mucosa; from tissue; host or cells: pig fundic mucosa (lyophilised gastric vesicles, method of Saccomani et al. 1977)
# Experiment: K+ stimulated ATPase activity (lyophilised gastric vesicles)
# Assay type: biochemical, pig
substance,measurement,setting,value
"2-(4-piperidino-3-chloro-5-methyl-2-pyridylmethylsulphinyl)--4,5-difluoromethylenedioxy-(1H)-benzimidazole [Example 24]",inhibit potassium stimulated ATPase activity,"pre-incubation at pH 6.1, 30 min at 37°",inhibit
same,inhibit potassium stimulated ATPase activity,"pre-incubation at pH 7.4, 30 min at 37°",inhibit
